Reference: article PMC10632515
Results are given in words; binding and its absence hold for the method and conditions named. Binding seen in cells or lysates may run through a third protein. Here binding means that the protein was enriched with, or labelled near, the bait; the list need not be complete.

Protein sequences, listed by entry. Tags and fused reporters are not part of them.
UniProt Q9C0J9: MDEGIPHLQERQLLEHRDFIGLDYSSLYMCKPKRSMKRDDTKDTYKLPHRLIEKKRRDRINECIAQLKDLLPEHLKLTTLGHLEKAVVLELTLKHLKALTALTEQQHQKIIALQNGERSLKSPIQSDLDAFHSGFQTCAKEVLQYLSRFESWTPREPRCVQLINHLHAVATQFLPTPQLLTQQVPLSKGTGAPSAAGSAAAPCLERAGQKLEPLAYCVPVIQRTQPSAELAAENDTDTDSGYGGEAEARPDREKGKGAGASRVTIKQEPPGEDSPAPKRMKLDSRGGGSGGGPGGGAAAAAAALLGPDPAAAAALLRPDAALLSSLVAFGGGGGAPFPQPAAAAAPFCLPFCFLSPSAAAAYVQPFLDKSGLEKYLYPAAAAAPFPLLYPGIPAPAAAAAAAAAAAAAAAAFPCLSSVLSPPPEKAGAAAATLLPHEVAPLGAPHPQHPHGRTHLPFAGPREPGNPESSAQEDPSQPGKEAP
UniProt P63208: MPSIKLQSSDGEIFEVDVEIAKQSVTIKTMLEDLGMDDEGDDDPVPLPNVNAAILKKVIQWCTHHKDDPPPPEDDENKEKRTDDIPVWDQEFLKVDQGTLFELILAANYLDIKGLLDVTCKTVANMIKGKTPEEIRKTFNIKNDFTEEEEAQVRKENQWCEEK
UniProt Q9Y297: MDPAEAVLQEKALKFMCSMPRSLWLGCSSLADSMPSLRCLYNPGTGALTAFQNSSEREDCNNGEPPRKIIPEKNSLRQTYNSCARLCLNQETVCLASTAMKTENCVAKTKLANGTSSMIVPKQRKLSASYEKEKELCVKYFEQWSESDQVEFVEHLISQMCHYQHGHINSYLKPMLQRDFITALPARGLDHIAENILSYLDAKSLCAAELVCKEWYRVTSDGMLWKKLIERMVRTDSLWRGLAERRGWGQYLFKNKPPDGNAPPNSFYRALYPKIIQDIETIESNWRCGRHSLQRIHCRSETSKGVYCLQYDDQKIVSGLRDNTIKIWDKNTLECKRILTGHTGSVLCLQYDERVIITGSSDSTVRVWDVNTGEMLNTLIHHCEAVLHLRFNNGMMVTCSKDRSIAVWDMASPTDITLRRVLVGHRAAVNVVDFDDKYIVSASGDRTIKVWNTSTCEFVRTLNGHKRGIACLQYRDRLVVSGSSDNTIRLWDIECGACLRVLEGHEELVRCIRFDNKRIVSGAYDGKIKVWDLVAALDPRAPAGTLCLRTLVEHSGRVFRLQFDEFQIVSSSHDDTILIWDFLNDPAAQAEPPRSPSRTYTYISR
UniProt Q9UKB1: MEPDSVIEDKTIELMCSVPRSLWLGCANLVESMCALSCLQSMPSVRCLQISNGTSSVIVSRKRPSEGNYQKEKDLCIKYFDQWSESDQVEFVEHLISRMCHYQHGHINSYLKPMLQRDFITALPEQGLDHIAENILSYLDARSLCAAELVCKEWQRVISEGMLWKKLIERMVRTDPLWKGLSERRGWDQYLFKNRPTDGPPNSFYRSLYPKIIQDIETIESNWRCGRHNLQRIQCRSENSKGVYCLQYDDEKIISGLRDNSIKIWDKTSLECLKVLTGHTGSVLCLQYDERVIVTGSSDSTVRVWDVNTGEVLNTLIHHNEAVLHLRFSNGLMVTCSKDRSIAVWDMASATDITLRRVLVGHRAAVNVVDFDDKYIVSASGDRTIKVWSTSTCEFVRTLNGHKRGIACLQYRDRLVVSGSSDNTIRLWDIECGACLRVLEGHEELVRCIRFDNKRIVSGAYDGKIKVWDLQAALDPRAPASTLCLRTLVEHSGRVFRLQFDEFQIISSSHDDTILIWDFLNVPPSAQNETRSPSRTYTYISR

Molecular target: FLAG-HA-epitope tagged SHARP1 (Split and Hairy-related Protein 1) (UniProt Q9C0J9)
Test: affinity purification with mass spectrometry; FLAG-HA-SHARP1 expressed in HEK293T, cells treated with 10 μM MG132 for 5 hours; lysis in 50 mM Tris-HCl pH 7.5, 150 mM NaCl, 1 mM EDTA, 0.5% NP-40; anti-FLAG resin, FLAG peptide elution, then anti-HA resin; LC-MS/MS; empty vector as control

Row | binding | Substance
1 | binds | SKP1 (endogenous, HEK293T cells) (from UniProt P63208 1-163)
2 | binds | βTrCP1 (endogenous, HEK293T cells) (from UniProt Q9Y297 1-605)
3 | binds | βTrCP2 (endogenous, HEK293T cells) (from UniProt Q9UKB1 1-542)
